Data on two molecules can be found in PMC5516854.

Sequences of proteins named here, by UniProt entry; tags and fusion partners are left off. Residues count along the entry.
UniProt P13569: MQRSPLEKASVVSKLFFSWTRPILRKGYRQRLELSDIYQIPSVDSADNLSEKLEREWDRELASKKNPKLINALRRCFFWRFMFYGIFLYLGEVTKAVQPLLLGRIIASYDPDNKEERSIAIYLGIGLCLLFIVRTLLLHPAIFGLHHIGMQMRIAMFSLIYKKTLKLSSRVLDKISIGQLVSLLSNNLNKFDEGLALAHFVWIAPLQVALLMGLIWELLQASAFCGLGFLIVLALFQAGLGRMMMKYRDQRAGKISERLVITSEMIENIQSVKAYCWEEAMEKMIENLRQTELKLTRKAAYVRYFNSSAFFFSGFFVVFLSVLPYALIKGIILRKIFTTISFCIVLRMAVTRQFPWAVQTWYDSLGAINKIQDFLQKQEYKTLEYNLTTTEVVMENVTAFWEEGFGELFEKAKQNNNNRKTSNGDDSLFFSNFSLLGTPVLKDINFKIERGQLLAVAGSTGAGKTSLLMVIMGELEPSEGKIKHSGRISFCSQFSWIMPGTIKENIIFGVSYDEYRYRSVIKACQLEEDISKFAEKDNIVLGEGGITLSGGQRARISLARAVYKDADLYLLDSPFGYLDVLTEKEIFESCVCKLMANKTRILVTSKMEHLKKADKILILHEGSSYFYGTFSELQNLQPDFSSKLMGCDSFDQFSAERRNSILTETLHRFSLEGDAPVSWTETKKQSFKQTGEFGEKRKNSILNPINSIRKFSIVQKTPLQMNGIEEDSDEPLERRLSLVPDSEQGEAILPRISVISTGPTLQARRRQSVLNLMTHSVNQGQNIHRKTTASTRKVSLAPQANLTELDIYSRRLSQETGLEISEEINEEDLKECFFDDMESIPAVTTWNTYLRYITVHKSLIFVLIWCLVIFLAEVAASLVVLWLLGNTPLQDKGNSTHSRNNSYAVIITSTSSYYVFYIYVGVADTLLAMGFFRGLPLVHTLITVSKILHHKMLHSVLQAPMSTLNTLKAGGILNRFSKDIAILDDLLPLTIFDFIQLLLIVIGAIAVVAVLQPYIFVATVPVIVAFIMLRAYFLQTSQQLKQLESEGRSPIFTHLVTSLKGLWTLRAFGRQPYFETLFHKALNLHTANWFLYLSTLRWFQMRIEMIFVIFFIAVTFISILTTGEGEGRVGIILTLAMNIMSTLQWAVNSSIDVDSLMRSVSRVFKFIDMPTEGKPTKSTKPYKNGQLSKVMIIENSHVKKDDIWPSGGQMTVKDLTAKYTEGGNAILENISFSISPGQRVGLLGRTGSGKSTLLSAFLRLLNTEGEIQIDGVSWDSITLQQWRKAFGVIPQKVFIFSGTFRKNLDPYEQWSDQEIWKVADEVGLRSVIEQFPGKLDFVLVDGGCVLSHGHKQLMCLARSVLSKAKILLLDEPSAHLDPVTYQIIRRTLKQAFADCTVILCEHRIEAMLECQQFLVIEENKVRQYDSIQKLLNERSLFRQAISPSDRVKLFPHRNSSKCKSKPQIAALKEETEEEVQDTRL
UniProt P34925, residues 26-607: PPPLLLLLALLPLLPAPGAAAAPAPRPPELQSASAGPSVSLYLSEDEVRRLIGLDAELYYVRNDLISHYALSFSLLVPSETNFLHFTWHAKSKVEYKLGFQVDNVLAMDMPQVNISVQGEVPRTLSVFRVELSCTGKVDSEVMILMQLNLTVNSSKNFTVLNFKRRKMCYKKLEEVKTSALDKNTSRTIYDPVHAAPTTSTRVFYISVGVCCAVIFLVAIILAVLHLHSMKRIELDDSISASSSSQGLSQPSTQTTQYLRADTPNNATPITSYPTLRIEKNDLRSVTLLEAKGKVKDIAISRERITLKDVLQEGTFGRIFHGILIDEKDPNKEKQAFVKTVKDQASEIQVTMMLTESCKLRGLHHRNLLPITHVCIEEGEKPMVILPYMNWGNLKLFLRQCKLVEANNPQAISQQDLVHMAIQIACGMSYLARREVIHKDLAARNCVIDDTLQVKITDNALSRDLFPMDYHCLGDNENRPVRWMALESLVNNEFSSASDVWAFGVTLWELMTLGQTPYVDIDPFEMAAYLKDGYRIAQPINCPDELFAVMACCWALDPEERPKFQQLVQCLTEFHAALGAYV

This experiment concerns the target cystic fibrosis transmembrane conductance regulator (CFTR) (human (endogenous in HEK293)) (UniProt P13569). The experiment is described as follows: co-IP; endogenous CFTR as bait, endogenous Ryk and Dab2 detected; HEK293 cells, No Wnt control or transiently expressing Wnt 1, 2, 2b2, 3 or 3a (interactions qualitatively diminished with these Wnts).

No constants are given. Whether binding was seen depends on the method and setting. Binding seen in cells or lysates may run through a third protein. Some entries that bind do so weakly or less than the wild type.

On to “receptor-like tyrosine kinase (Ryk) (from UniProt P34925 26-607)”, for which the binding entry is “binds”.

B1: Dab, mitogen-responsive phosphoprotein, homolog 2 (Dab2) (protein, UniProt P98082 1-770)
chain: MSNEVETSATNGQPDQQAAPKAPSKKEKKKGPEKTDEYLLARFKGDGVKYKAKLIGIDDVPDARGDKMSQDSMMKLKGMAAAGRSQGQHKQRIWVNISLSGIKIIDEKTGVIEHEHPVNKISFIARDVTDNRAFGYVCGGEGQHQFFAIKTGQQAEPLVVDLKDLFQVIYNVKKKEEEKKKIEEASKAVENGSEALMILDDQTNKLKSGVDQMDLFGDMSTPPDLNSPTESKDILLVDLNSEIDTNQNSLRENPFLTNGITSCSLPRPTPQASFLPENAFSANLNFFPTPNPDPFRDDPFTQPDQSTPSSFDSLKSPDQKKENSSSSSTPLSNGPLNGDVDYFGQQFDQISNRTGKQEAQAGPWPFSSSQTQPAVRTQNGVSEREQNGFSVKSSPNPFVGSPPKGLSIQNGVKQDLESSVQSSPHDSIAIIPPPQSTKPGRGRRTAKSSANDLLASDIFAPPVSEPSGQASPTGQPTALQPNPLDLFKTSAPAPVGPLVGLGGVTVTLPQAGPWNTASLVFNQSPSMAPGAMMGGQPSGFSQPVIFGTSPAVSGWNQPSPFAASTPPPVPVVWGPSASVAPNAWSTTSPLGNPFQSNIFPAPAVSTQPPSMHSSLLVTPPQPPPRAGPPKDISSDAFTALDPLGDKEIKDVKEMFKDFQLRQPPAVPARKGEQTSSGTLSAFASYFNSKVGIPQENADHDDFDANQLLNKINEPPKPAPRQVSLPVTKSTDNAFENPFFKDSFGSSQASVASSQPVSSEMYRDPFGNPFA
As to B1, the binding result was “binds”.
